Experimental findings from doi:10.64898/2025.12.11.693769 are described below.

The target of the experiment is DacA-FLAG (diadenylate cyclase DacA with C-terminal FLAG tag) (Streptococcus mutans). Kind of experiment: affinity purification with mass spectrometry.

Results are given in words; binding and its absence hold for the method and conditions named. In cells and extracts the contact can be indirect. A yes stands for co-enrichment or nearness to the bait. Other partners may have been found.

B1: FtsK (protein, UniProt Q8DSX7 1-787)
chain: MAKTKNKRKGRKTRRPTKAELEKQRAIKRMVFALFMAFVLFFAIFKLGRVGVTVYNIIRLMVGSLAYPFIFAALIYLFATKWLKKHDGLVGGFVITMLGMLLEWQAYLFSLATMKDQSVIKGTLVIVFSDLSKFRVANFAGGGFLGALLYMPVAFLFSNIGSFLIGGLFLLLGLFLMSPWDVYDVMNFFKDSYAKWQVKRQENREKRFAQKEEARLLAQQAVQEAQESATFDHGLNAAIDLETGEVLDQAQTIDLDDFDGQVHKEPEIIGYQSDPEGEALEAEVPAAEQTSQLPKEEDMSDESLEVDFTPKTTLHYKLPGIDLFAKDKPKNQSKEKRLVRDNIKILEETFTSFGIKANVERAEIGPSVTKYEVKPAVGVRVNRISNLADDLALALAAQDVRIEAPIPGKSLVGIEVPNSEVATVTFRELWEQAKASPDKLLEVPLGKAVNGSVRSFDLAKMPHILVAGSTGSGKSVAVNGIIASILMKARPDQIKFMMIDPKMVELSVYNDIPHLLIPVVTNPRKASKALQKVVDEMENRYELFSHFGVRNIAGYNAKVEEFNRHSETKHIPLPLLVVIVDELADLMMVASKEVEDAIIRLGQKARAAGIHMILATQRPSVDVISGLIKANVPSRIAFAVSSGTDSRTILDENGAEKLLGRGDMLFKPIDENHPVRLQGSFISDDDVERIVSFIKEQAEADYDESFDPGEVSEDDNSNGNGGNSEGDPLFEDAKALVLETQKASASMLQRRLSVGFNRATRLMEELEEAGVIGPAEGTKPRKVLQSN
In the case of B1, the binding entry is listed as “binds”.

B2: MltG (protein, UniProt Q8DSP6 1-614)
chain: MKKAKQSRKNRDISQVKKGNVAKDHQKYSDSAVQKQDKEETRTVMPIPEGNITDKDVDNVLANLDEIFAPGQLNHSDQINEKENSQQITGKQSSSLKTGSATQETETFQSKESLTLPNKKTSENKVSDVLEVKVKKTNNWVDDGEAENWQLPDLTEKLTNNNDEETKELPLSSLAEKTNSESEMKHSVKETEELLKQEKKLSSKYDKTKSQTKASSKEKDVTANLNQKRQQHYKKTNRLAKKISTVLITFILILLLGTGLFGYYYVSSAIKPLDAHSTKYIQVEIPSGSGNRMIGKILEKAGVIKNATVFNFYTKFRNYSNLQSGYYNLQKSMSLDDIAKTLKNGGTTTPQAPVLGKVVIPEGYTIKQISKAITSNANTKKKTDKTPFTAKEFLKTVKDKAFIEKMVKKYPRLLGSLPDASKVTYQLEGYLFPATYSYGEKTSIEDLIDNMLAAMDTNMQSYYDTIESQGKTVNDILTLASLVEKEGATDDDRKKIAGIFYNRINQDMPLQSNIAILYAMGKLGEKTSLKEDATINTKIDSPYNVYTNKGLMPGAVDNPSLSAIKAAVEPESTDDLYFVADVTTGEVHYAKTYEEHSANVEKYVNKKVASSSDS
As for B2, the binding entry is “binds”.

B3: PknB (protein, UniProt Q8DVK1 1-616)
chain: MIQIGKLFAGRYRILQSIGRGGMADVYLANDLILDNEEVAIKVLRTNYQTDQVAVTRFQREARAMAELNHPNIVAIRDIGEEDGQQFLAMEYVDGADLKKYIQDHAPLSNAEVIRIMKEVLSAMTLAHQKGIIHRDLKPQNVLLTKDGTAKVTDFGIAVAFAETSLTQTNSMLGSVHYLSPEQARGSKATVQSDIYAMGIMLFEMLTGHIPYDGDSAVTIALQHFQKPLPSIIAENKNVPQALENVVIKATAKRLTDRYHSTQEMLQDLRTSLQPNRSRERKLVFSDASDTKPLPKLEQAAANSLAAQSLKNKTSNQDKVDHKSKPKTKPQPKPKKKRHFLARFFKIFFILVAIGIAVLTYLVLTKPSTVSVPDVSGDKLSTAKMIIRKSGLKVGDVQKIEDDNVGAGKVVRTNPSAGSKKREGSSVDIFVASAKGFKMEDYTGQDYKDAIDNLTNNYGVSRDSIVLKEVSSDDYSGGTVIGQSPKPGKTYHPSSDKKITLKVVKVTMPNLKNSTYEEAVSTLTAMGISSSRIKAYDASDYSSEISSPSSSSLVVGQSPYYGNTVSLSSNDDIILYVSTSGGSHSGSSSSESSNSEGTTSSEASTDSSSSATTTSH
Turning to B3, the binding result was “binds”.

B4: OpuCa (protein, UniProt Q8DRU8 1-383)
chain: MDKDPVIEFKEVNKIYGDNVAVKHINLKIMAGEFVCLIGTSGSGKTTILRMINRMLKPSNGKIFIKGEEISDLNPVQLRRKIGYVIQNIGLMPHMTIYENITLVPKLLKWSEDKKKAKAKELIKLVELPEDFLDRYPYELSGGQQQRIGVVRALAADQDIILMDEPFGALDPITREGLQDLVKSLQEKTGKTIVLVTHDMDEALKLATKIVVMDKGHMVQQANPTELLRHPATAFVKKMIGEDRLIQARADVTPVKNIMLKDPVSIAPDKSLNDAISLMRQKRVDSLLVTDKDNKLLGMIDVESLNNNYKQNLVVADILNKISFYLEEDQLLRDTAHRILKRGLKYVPVIDKEWHLKGIVTRSSLVDMLYDIIWGNQDTEETL
For B4, the binding entry was “binds”.

B5: SMU_1412c (protein, UniProt Q8DTD8 1-842)
chain: MLELKHITKVYETAGIKRMALENVSVNFRANEFVAVLGQSGSGKTTLLNIIGGLDQYTTGDLLINGKSTKDFKDKDWDSYRNNTIGFVFQSYNLISHQTALANVELALTLSGVSKAERRKRALDALKRVGLEDEINKKPNQMSGGQMQRVAIARALVNNPDILLADEPTGALDSETSLQIMDLLKEIAQERLVIMVTHNPDLAEKYSNRIIKVLDGHIINDSNPYTDDEIRKATVDFKKTKMSFTTALSLSFNNLLTKKGRTLLTAFAGSIGIIGIALILSLSNGVQKYIAKTQEDTLVAYPLSIEKSSNKNFIGLLAANSNENKKSDKKKTNKKIGTNSILKNMISTQVVDNDLASFKTYIKKHQKKFAAVTKDIQYSYKITPRIYQSDTSKGVKAVNPNTLSKDLKDTSTSIQTVVSNLDIWQELSSNEKMLSSQYQVISGHLPKQYNEVVLMADENNKIDDYVLYSLGIKDAKQLNSKTIKKVKASSYHYKDLIGRTYKLVINSDLYQKEGNAWIDRSDNDAYMKQVINAAENIKIVGIVKPQEGTTSESSSAGVGYSHDLTDYLAKKIKSSTIAKEQLANKKLNVFTGQSFSSGNKTFSSDNLSVQQQASMASMSAEELADYVNRYNENANATYKDNLEKIGIIDNNNPETIHFYASSFKDKEALKDLISDYNKKVKKDKHKSRVIRYTDTVGLMMSSVTTMINAVTYILIGFVAISLIVSSIMIGIITYISVLERTKEIGVLRAMGASKRDVTRIFTAETIIEGAIAGVLGILITLLLNIAITLIVKNWLNINHISSLPIWSAIVLIAISIVLTVFAGILPSRVAAKKDPVEALRTE
Take B5: the binding result is listed as “binds”.

B6: DivIVA (protein, UniProt Q8DVD4 1-271)
chain: MAITALEIKDKTFGTKMFGYNTQEVEEFLDIVVDDYEELVRTNREKDNRIKELEDKLGYFDEMKESLSQSVILAQETAEKVKLSANTESTNILNKATYESQQLVDAAKSKANQILRDATDEAKRIAVETEELKRQSRVFHQHLLSVVEGQLTLANSPEWTELLQPTAVYLQNSDAAFKEVVEQVLGEHVPDAADTEPIEVTRQFTPEEMEELHRRVSESNKELEETKAGQSTVDDQQPLIIEAADETKVNESADEQPNLNETQTFKLNINE
For B6, the binding result is recorded as “binds”.

B7: KhpB (protein, UniProt Q8DVX2 1-322)
chain: MVLFTGKTVEEAIESGLKQMGISRMKAHIRVISREKKGFLGFGRKLARVEIEGINEKTAHKADQKAVRGVPDSINKQNAPVSSSAEDTVALNHLSKTIKKLEKEDGQPLDKEIKEQVLEHKISAQEMLEQNALTTKTSAATASSEAFNQKGKQTFEDFVADAFDEVDNGADIAVASKEVSQYIQKIIYEMDLETSIETSHNRRQINLQIETPEAGRVIGYHGKVLKSLQLLAQNFLHDHYSKHFSVTLNVHDYMEHRTKILIDFAHKIAKRVLDSGKAYQMDPMSNSERKVIHKTITGIEGVESYSEGNDPNRYVVIASKGN
Consider B7, for which the binding entry is “binds”.

B8: EzrA (protein, UniProt Q8DTQ3 1-574)
chain: MSSGIVLLIVAIVLVVIIAYLIAIIIRKRNDSLITKLEERKQNLFDLPVNDEIEEVKKLHLIGQSQTTFREWNQKWVDLSLNSFSDIENHIFEAENLNDTFNFIRAHSQINNIESQLNLAEEDIKAIREALAVLKEQEEKNSARVLHALEMYESLQASIEEGDSNFGITMPEIEKQLKNIEAEFSQFVTLNSSGDPVEASEILDRAEEHTIALGQMTEKIPAIVAKLEDDFPDQLDDLESGYRRLLEENYHFPEKNIEERFQEVREAIGNNSNELVSLDLDKAESENEAIQEKIDSLYDIFEREIRAHKNIVKSKKIIPAYLEHAKKNNEQLEAEIERLNHRYILNEKEELNVRDFNEEIASVEKDVLPIIENFDTQEKPFSVLEDKFDRAIKKLDLVEEGQLDVFNSLKNIENVEKTARQKLDSYINRLHAIKRFMEKRNLPGIPQDFLSVFFTTSAQLEALMDELNRARIHIETVNRMTEAATAAVENLEETAYRVVQNATLTEQLLQYSNRYRSFEPSVQESFDIALKLFETDYDYQGSFDEISYSLETVEPGVTDRFVSSYEKTRETIRF
In the case of B8, the binding entry is listed as “binds”.

B9: SMU_502 (protein, UniProt Q8DVI6 1-566)
chain: MASKEKWTELFEKVIGRKPTPQEFLEGKKGFFDLKEIKKIAGVDKADDLQETSSDIKQAILGNSITAVKPDNESSKEETKSTDKPVSTEVDKSPKQLWVEAFEKTIGRQPTPEEFISGRNQDFDLAKISQLVEKESVSKTSNLAKAPFTKGKKILITLGLVCLLALVVGYIYGNQYFSREAVAQRYLKVANSNFDKALEFEVWSDTEKPIKKSELTYRNSKETRTVTMDKLTSDASQMKKVGNKFLIFPDWRVAIKPASAKISINTKGLELFINDKRVTKADSDSFSQTISRLYPGTYNFVAKGNISGQKVEVSSEEKLTNHSTINLNVKYLSFKVNSNLTDGDLYVGSRKIGTLKDGKYNVTKLAVTDTSKIYVQKSFSGKATLKSEVQSIEDVYDGDTISLDAKGVLDRDTADSLITQAYYKLDSYASSHTTPDDLDDIFTSGNHNNFYLDVKNTIDTNTTNAKNRSADSINFSDVDVTKVTQTSPTTYAVEFTVVYDFYYSYSSEHKSSGSITQKLSWSALVEYVGDNKKNSSDSYSYNSYEDYRITSDNGKSSVLSTKNTVD
Take B9: the binding entry is reported as “binds”.

B10: FtsA (protein, UniProt Q8DVE0 1-453)
chain: MARDGFFTGLDIGTSSIKVLVAEFINGSMNVIGVSNVKSSGVKDGIIIDIDTAAEAIKSAIKEAEEKAGMSISKVNVGLPANLLQIEPTQGMIPVPSESKEIKDEDVDSVVRSALTKSITPEREVISLIPEEFIVDGFQGIRDPRGMMGIRLEMRGLIYTGPSTILHNLRKTVERAGIEVENIIISPLALTKSVLNEGEREFGATVIDMGGGQTTVASMRAQELQFTNTYAEGGDYVTKDISKVLKTSHQVAEALKFNFGEANVAEASSTETVQVEVVGERNPVEITERYLSEIISARVRHLLDRIKQDLERGRLLDLPGGIVIVGGAAIMPGVVEIAQEIFGFNVKLHVPNQVGIRNPMFANIISIVEYVGTLTEVDILAQGAVSGDEKLRRKPIDIKPSGVAPKTRSFAQPQESTTLESQLEQLPPQQKEANEPKQKVGDRLRGIFGSMFD
Regarding B10, the binding result was “binds”.
